This series can be described thus: general procedure: solution-phase peptide synthesis; pivaloyl chloride / triethylamine (mixed anhydride). As to conditions: HCl.

[ ]: non-standard residue; d: D form. The star is where a group is joined. NMeV = CN[C@H](C(=O)O)C(C)C; Cbz = O=C(OCc1ccccc1)*; NHBn = c1ccc(CN*)cc1

Consider Cbz-VV[NMeV]PP-NHBn, for which the step yield (coupling step) was 81.4%. The “crude purity (method not given)” value (coupling step, HPLC percent area) amounted to 88.7%.
Take “Me2 Val--Val--MeVal--Pro--Pro--NHBzl×HCl”: the step yield (coupling step) is reported as 67%. For the same substance, the “purity (crude or final not stated)” value (late stage modification step, HPLC percent area) worked out at 99.1%.
For the substance Cbz-VV[NMeV]P-OH, the step yield (late stage modification step) is listed as 96.4%.

Source of the values: US5864012 (dated 1999).
